For 5 molecules, T/C and survivor count results are on record in PubChem BioAssay AID192 (DTP/NCI, 2004).

The list does not hold the whole screen: it gathers tests that were run many times, whatever their T/C, doses with no T/C, and many T/C values between a quarter and a half above the control. Further doses and runs are listed elsewhere. T/C is the treated group as % of the vehicle group. Some doses have a count of surviving animals in place of a T/C: the source holds a T/C of zero for them, seemingly a mark for toxic or unscored doses. Some survivor counts are full or nearly so, which does not show that the dose was tolerated: survival well below the control is almost never listed, so the zero probably covers shortened survival too. Counts of survivors are from the toxicity check (mostly the fifth day) where no day follows; animals may have died later. Schedule codes are those of the source, read here as Q, the interval in days (D) or hours (H), X, the number of doses. Marks such as (2×) say how often a value occurs here. Some doses were run more than once; their values stand side by side, smallest first. For survival time, the PubChem record calls one and a half times the control and up active, and a quarter to a half above the control has no call in these data; cut-offs in other NCI protocols can differ. Some T/C values are followed by the survivors on the day toxicity was checked, most often the fifth; without a count, all were alive then.

This assay deals with BDF1 mice, B16 melanoma ip, median survival T/C. Put plainly: NCI In Vivo Anticancer Drug Screen. Data for tumor model B16 Melanoma (intraperitoneal) in B6D2F1 (BDF1) mice. Conditions: T/C endpoint: median survival time, higher T/C = longer survival. In outline:
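Tumor-bearing mice received test compound or vehicle. Survival or tumor size was then measured in both groups. The treated-group figure was divided by the control-group figure.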

Where [1] appears, read: dose: 2.0 mg/kg/injection, schedule: Q01DX009 (ip), vehicle: Klucel (hydroxypropylcellulose) (HPC).
The mark [2] stands for this setting: dose: 4.0 mg/kg/injection, schedule: Q01DX009 (ip), vehicle: Klucel (hydroxypropylcellulose) (HPC).
[3] abbreviates: dose: 4.0 mg/kg/injection, schedule: Q01DX009 (ip), vehicle: saline with Tween-80.
[4] abbreviates: dose: 8.0 mg/kg/injection, schedule: Q01DX009 (ip), vehicle: sodium bicarbonate.

As for `COc1cccc2c1C(=O)c1c(O)c3c(c(O)c1C2=O)C[C@@](O)(C(=O)CO)C[C@@H]3OC1CC(NCc2ccccc2)C(O)C(C)O1` (some centres undefined), the T/C was 125 % of control (dose: 3.75 mg/kg/injection, schedule: Q01DX001 (ip), vehicle: water) and 130 % of control (dose: 7.5 mg/kg/injection, schedule: Q01DX001 (ip), vehicle: water). Further, the survivor count reads like this: (dose: 60.0 mg/kg/injection, schedule: Q01DX001 (ip), vehicle: water) 1 of 10 and 8 of 10; (dose: 120.0 mg/kg/injection, schedule: Q01DX001 (ip), vehicle: water) 0 of 10; (dose: 240.0 mg/kg/injection, schedule: Q01DX001 (ip), vehicle: water) 0 of 10.

In the case of `Cc1cccc2nc(-c3ccccc3)ccc12`, the survivor count is recorded as 0 of 10 (dose: 50.0 mg/kg/injection, schedule: Q04DX003 (ip), vehicle: Klucel (hydroxypropylcellulose) (HPC)); 6 of 10 (dose: 50.0 mg/kg/injection, schedule: Q04DX003 (ip), vehicle: saline); 0 of 10 (dose: 100.0 mg/kg/injection, schedule: Q04DX003 (ip), vehicle: Klucel (hydroxypropylcellulose) (HPC)); 0 of 10 (dose: 200.0 mg/kg/injection, schedule: Q04DX003 (ip), vehicle: Klucel (hydroxypropylcellulose) (HPC)).

`CC1CCCCN1CCNc1ccc(CO)c2sc3ccccc3c(=O)c12` (centres undefined): for the setting “dose: 200.0 mg/kg/injection, schedule: Q01DX009 (ip), vehicle: saline with Tween-80”, the survivor count was 10 of 10.

With `CN(Cc1cnc2nc(N)nc(N)c2n1)c1ccc(C(=O)N[C@@H](CCC(=O)O)C(=O)O)cc1`, the T/C was 86, 94, 96, 97, 100, 102, 110, 111 % of control (dose: 0.5 mg/kg/injection, schedule: Q01DX009 (ip), vehicle: Klucel (hydroxypropylcellulose) (HPC)); 95 % of control (dose: 0.5 mg/kg/injection, schedule: Q01DX009 (ip), vehicle: saline with Tween-80, evaluated on day 45); 100, 104, 111 % of control (dose: 0.5 mg/kg/injection, schedule: Q01DX009 (ip), vehicle: saline with Tween-80, evaluated on day 60); 87 and 107 % of control (dose: 0.5 mg/kg/injection, schedule: Q01DX009 (ip), vehicle: saline, evaluated on day 50); 93, 94 [5 of 6 alive], 97 (3×), 100 (2×), 102 (3×), 102 [5 of 6 alive], 104 (2×), 107, 108, 117, 118 % of control (dose: 0.5 mg/kg/injection, schedule: Q01DX009 (ip), vehicle: saline, evaluated on day 60); 88, 94 (2×), 102, 106, 108, 108 [5 of 6 alive], 109 % of control (dose: 1.0 mg/kg/injection, schedule: Q01DX009 (ip), vehicle: Klucel (hydroxypropylcellulose) (HPC)). Besides, the T/C reads like this: (dose: 1.0 mg/kg/injection, schedule: Q01DX009 (ip), vehicle: saline with Tween-80, evaluated on day 45) 100 % of control; (dose: 1.0 mg/kg/injection, schedule: Q01DX009 (ip), vehicle: saline with Tween-80, evaluated on day 60) 102 (2×) and 111 % of control; (dose: 1.0 mg/kg/injection, schedule: Q01DX009 (ip), vehicle: saline, evaluated on day 50) 95 and 105 % of control; (dose: 1.0 mg/kg/injection, schedule: Q01DX009 (ip), vehicle: saline, evaluated on day 60) 88, 90, 93, 94, 97 (2×), 97 [5 of 6 alive], 100 (2×), 100 [5 of 6 alive], 102 (3×), 105, 110 % of control (3×); (dose: 1.0 mg/kg/injection, schedule: Q01DX009 (ip), vehicle: sodium bicarbonate, evaluated on day 5) 100 % of control; (dose: 1.0 mg/kg/injection, schedule: Q01DX009 (ip), vehicle: sodium bicarbonate, evaluated on day 60) 90, 98 (2×), 98 [9 of 10 alive], 102 (2×), 108, 109 % of control (2×). The T/C reads like this: (dose: 1.0 mg/kg/injection, schedule: Q01DX009 (ip), vehicle: sodium bicarbonate, evaluated on day 90) 100 % of control; under setting [1], 91, 102, 103, 106, 111 (2×), 113 % of control; (dose: 2.0 mg/kg/injection, schedule: Q01DX009 (ip), vehicle: saline with Tween-80, evaluated on day 45) 100 % of control; (dose: 2.0 mg/kg/injection, schedule: Q01DX009 (ip), vehicle: saline with Tween-80, evaluated on day 60) 88, 95, 108 % of control; (dose: 2.0 mg/kg/injection, schedule: Q01DX009 (ip), vehicle: saline, evaluated on day 50) 92 % of control (2×); (dose: 2.0 mg/kg/injection, schedule: Q01DX009 (ip), vehicle: saline, evaluated on day 60) 87, 91, 92, 95, 97 (3×), 100, 104 (3×), 110, 112, 113, 117, 121, 122 % of control. The T/C is 97 % of control (dose: 2.0 mg/kg/injection, schedule: Q01DX009 (ip), vehicle: sodium bicarbonate, evaluated on day 5); 90, 92, 95, 97, 102, 105, 106, 111 % of control (dose: 2.0 mg/kg/injection, schedule: Q01DX009 (ip), vehicle: sodium bicarbonate, evaluated on day 60); 97 % of control (dose: 2.0 mg/kg/injection, schedule: Q01DX009 (ip), vehicle: sodium bicarbonate, evaluated on day 90); 86, 91, 97, 102 (2×), 103 % of control under setting [2]; 102 and 104 % of control under setting [3]; 92 and 95 % of control (dose: 4.0 mg/kg/injection, schedule: Q01DX009 (ip), vehicle: saline, evaluated on day 50). The T/C (dose: 4.0 mg/kg/injection, schedule: Q01DX009 (ip), vehicle: saline, evaluated on day 60) was 86, 88, 89, 92, 97 (2×), 100, 102, 102 [5 of 6 alive], 105 % of control; the T/C (dose: 4.0 mg/kg/injection, schedule: Q01DX009 (ip), vehicle: sodium bicarbonate, evaluated on day 5) is 32 % of control; the T/C (dose: 4.0 mg/kg/injection, schedule: Q01DX009 (ip), vehicle: sodium bicarbonate, evaluated on day 60) is listed as 91, 93, 95, 97, 101, 109, 114 % of control; the T/C under setting [4] was 90 % of control; the T/C (dose: 16.0 mg/kg/injection, schedule: Q01DX001 (ip), vehicle: saline) is 126 % of control; the T/C (dose: 64.0 mg/kg/injection, schedule: Q01DX001 (ip), vehicle: saline) is 128 % of control. Moreover, the survivor count reads like this: (dose: 0.5 mg/kg/injection, schedule: Q01DX009 (ip), vehicle: saline) 6 of 6; (dose: 1.0 mg/kg/injection, schedule: Q01DX009 (ip), vehicle: saline) 3 of 6; under setting [1], 6 of 6; (dose: 2.0 mg/kg/injection, schedule: Q01DX009 (ip), vehicle: saline) 3 of 6; (dose: 2.0 mg/kg/injection, schedule: Q01DX009 (ip), vehicle: sodium bicarbonate) 10 of 10; (dose: 3.0 mg/kg/injection, schedule: Q01DX009 (ip), vehicle: saline) 6 of 6. The survivor count reads like this: under setting [2], 6 of 6; under setting [3], 6 of 6 (2×); (dose: 4.0 mg/kg/injection, schedule: Q01DX009 (ip), vehicle: saline) 6 of 6; (dose: 4.0 mg/kg/injection, schedule: Q01DX009 (ip), vehicle: sodium bicarbonate) 9 of 10 and 10 of 10; (dose: 6.0 mg/kg/injection, schedule: Q01DX009 (ip), vehicle: saline) 5 of 6; (dose: 6.0 mg/kg/injection, schedule: Q01DX009 (ip), vehicle: sodium bicarbonate) 10 of 10. For the same molecule, the survivor count is 8 of 10, 9 of 10, 10 of 10 under setting [4]; 8 of 10 and 10 of 10 (dose: 12.0 mg/kg/injection, schedule: Q01DX009 (ip), vehicle: sodium bicarbonate); 3 of 10, 7 of 10, 8 of 10, 9 of 10, 10 of 10 (dose: 16.0 mg/kg/injection, schedule: Q01DX009 (ip), vehicle: sodium bicarbonate).

In the case of `O=C(Nc1ccc([N+](=O)[O-])cc1)Nc1nccs1`, the T/C (dose: 12.5 mg/kg/injection, schedule: Q01DX009 (ip), vehicle: distilled water + Tween-80) is 128 % of control [9 of 10 alive] and the T/C (dose: 25.0 mg/kg/injection, schedule: Q01DX009 (ip), vehicle: distilled water + Tween-80) was 144 % of control. Besides, the survivor count by setting is: (dose: 100.0 mg/kg/injection, schedule: Q01DX009 (ip), vehicle: distilled water + Tween-80) 10 of 10; (dose: 200.0 mg/kg/injection, schedule: Q01DX009 (ip), vehicle: distilled water + Tween-80) 4 of 10.
